No constants are given. Whether binding was seen depends on the method and setting. Binding seen in cells or lysates may run through a third protein. Here binding means that the protein was enriched with, or labelled near, the bait; the list need not be complete.

Sequences of proteins named here, by UniProt entry; tags and fusion partners are left off.
UniProt Q60843: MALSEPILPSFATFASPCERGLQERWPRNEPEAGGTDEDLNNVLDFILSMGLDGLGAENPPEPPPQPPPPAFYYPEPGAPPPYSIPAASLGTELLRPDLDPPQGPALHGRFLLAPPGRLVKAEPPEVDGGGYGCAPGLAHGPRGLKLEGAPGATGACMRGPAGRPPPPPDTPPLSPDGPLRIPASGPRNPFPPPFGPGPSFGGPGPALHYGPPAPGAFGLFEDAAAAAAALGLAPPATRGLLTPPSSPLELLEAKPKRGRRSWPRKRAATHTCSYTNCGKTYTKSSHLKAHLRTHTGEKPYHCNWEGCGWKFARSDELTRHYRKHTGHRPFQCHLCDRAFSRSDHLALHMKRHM
UniProt Q9WTX6: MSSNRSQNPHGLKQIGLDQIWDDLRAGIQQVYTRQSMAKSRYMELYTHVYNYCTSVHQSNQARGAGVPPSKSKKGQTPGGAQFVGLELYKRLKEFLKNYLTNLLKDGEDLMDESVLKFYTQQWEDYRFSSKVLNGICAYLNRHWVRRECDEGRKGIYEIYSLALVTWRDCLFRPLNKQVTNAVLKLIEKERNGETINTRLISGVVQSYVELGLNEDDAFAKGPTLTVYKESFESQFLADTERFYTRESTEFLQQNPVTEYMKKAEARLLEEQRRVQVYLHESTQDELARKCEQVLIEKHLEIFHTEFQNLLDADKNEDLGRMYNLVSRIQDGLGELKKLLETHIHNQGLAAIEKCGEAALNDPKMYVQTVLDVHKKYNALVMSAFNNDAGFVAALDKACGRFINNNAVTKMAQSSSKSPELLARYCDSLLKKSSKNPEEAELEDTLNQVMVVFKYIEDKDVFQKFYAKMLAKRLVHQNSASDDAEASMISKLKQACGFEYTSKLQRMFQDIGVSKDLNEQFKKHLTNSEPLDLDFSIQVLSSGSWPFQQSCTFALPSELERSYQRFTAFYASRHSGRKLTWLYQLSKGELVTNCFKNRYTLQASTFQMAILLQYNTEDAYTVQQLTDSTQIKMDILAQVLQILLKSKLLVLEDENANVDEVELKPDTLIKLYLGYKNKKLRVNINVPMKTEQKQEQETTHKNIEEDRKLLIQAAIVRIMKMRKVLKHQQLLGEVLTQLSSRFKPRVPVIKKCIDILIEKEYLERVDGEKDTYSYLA
UniProt Q8VBV4: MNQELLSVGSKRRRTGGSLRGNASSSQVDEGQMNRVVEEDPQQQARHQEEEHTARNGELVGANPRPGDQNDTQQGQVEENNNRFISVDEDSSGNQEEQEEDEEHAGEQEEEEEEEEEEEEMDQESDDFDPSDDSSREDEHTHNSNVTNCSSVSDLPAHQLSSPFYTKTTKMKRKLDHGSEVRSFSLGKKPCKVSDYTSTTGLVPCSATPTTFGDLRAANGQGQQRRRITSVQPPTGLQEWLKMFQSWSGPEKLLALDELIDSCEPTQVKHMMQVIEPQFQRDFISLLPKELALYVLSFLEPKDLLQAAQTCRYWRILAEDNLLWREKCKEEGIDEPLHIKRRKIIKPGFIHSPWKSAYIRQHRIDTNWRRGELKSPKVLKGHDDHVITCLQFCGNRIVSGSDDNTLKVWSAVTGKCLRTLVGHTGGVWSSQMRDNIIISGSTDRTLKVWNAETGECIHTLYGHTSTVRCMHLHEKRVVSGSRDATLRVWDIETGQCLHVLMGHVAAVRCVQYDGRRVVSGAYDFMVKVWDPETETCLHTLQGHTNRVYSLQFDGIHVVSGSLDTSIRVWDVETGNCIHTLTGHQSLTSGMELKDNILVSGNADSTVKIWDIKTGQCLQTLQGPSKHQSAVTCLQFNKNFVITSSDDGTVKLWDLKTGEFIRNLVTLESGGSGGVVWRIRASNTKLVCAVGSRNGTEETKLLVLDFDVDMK

For the assay, the target named is 3xFLAG-KLF2 wildtype (UniProt Q60843). Description: affinity purification with mass spectrometry.

“CUL1 (endogenous, mESCs) (from UniProt Q9WTX6 1-776)”: the binding entry was “binds”. The result for “FBW7 (endogenous, mESCs) (from UniProt Q8VBV4 1-710)” reads “binds”.

The values are drawn from article doi:10.1101/2021.03.29.435803.
